# Laboratory results published in publication PMC3009604.
# Amino acid sequences for entries named in this document (tags omitted). Residues count along the entry.
# UniProt P11021, residues 19-654: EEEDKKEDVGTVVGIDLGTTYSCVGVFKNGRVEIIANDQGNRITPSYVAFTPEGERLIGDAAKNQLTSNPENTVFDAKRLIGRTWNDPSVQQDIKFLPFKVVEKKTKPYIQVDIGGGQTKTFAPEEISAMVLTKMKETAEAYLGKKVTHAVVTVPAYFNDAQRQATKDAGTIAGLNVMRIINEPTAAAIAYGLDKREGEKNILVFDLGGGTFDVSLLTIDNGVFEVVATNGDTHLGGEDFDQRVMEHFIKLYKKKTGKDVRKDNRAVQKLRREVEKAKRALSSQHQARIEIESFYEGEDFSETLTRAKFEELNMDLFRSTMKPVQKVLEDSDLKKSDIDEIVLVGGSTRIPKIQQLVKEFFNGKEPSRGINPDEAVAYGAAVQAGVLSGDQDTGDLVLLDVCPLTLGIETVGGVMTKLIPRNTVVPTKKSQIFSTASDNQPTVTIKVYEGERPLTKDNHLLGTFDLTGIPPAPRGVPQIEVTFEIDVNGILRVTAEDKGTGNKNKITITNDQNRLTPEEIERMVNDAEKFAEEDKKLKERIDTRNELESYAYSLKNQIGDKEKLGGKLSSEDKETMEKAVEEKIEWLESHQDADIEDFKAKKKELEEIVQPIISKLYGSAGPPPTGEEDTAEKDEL
# UniProt P35579: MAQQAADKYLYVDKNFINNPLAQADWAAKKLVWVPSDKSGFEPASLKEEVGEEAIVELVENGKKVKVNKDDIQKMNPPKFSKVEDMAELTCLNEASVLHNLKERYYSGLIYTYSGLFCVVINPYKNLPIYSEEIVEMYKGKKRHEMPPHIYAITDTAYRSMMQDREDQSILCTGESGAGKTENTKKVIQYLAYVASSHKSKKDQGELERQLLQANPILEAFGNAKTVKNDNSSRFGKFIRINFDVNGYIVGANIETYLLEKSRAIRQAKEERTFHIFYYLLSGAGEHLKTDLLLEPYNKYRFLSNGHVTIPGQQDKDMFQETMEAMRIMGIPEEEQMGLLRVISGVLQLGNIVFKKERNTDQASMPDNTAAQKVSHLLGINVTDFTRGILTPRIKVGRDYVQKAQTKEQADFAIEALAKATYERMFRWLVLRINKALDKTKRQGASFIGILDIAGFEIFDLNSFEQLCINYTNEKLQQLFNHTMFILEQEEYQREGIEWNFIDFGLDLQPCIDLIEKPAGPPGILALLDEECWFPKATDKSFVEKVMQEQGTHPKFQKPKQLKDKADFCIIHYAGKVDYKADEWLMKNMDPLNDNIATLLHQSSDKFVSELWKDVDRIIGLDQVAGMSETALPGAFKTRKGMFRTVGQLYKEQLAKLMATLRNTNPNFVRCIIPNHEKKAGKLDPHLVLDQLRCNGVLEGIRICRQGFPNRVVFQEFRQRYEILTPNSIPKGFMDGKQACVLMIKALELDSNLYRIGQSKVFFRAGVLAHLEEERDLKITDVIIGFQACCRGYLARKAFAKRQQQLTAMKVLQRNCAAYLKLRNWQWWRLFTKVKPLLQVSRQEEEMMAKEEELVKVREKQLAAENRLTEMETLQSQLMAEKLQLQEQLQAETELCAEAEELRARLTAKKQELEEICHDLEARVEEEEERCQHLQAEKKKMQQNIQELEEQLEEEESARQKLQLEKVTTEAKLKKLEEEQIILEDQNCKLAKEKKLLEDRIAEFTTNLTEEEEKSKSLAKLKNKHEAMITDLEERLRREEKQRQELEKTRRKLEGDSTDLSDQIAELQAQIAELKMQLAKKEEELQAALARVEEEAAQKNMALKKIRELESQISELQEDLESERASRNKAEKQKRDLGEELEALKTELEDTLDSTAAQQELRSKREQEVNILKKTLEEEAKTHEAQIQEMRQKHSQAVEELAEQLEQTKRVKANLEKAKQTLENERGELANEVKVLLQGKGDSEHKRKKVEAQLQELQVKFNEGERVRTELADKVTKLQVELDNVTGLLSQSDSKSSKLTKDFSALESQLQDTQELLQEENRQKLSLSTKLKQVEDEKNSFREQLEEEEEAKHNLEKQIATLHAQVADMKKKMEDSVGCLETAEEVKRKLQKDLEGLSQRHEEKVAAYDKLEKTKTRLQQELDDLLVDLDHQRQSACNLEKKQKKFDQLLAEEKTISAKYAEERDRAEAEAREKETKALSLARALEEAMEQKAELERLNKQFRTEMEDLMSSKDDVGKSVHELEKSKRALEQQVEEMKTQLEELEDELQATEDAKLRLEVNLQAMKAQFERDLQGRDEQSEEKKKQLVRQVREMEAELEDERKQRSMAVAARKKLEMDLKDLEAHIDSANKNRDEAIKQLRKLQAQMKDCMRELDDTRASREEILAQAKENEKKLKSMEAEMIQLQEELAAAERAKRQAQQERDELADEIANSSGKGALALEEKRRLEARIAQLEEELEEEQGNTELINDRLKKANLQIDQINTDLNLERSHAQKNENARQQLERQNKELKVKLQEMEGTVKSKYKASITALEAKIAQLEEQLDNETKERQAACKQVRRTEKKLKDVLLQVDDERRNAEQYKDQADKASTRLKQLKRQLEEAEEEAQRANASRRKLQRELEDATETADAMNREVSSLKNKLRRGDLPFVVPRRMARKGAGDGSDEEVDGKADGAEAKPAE
# These are yes or no findings as the source states them, for the method shown. Binding seen in cells or lysates may run through a third protein. These calls come from enrichment with a bait or labelling near it, and not all partners need be listed.
# Target: c-Cbl (human (endogenous in HMVEC-d)) (UniProt P22681)
# Assay: affinity purification with mass spectrometry; HMVEC-d cells infected with KSHV for 1, 5 and 10 min; lysates immunoprecipitated with anti-c-Cbl antibody, SDS-PAGE, Coomassie blue, bands excised, trypsin digest, mass spectrometry
row,Substance,binding
1,BiP protein (from UniProt P11021 19-654),binds
2,non-muscle myosin heavy chain IIA (from UniProt P35579 1-1960),binds
3,vimentin (from UniProt P08670 1-466),binds
